Data as given in PubChem BioAssay AID743454 (Peter MacCallum Cancer Centre, 2014)
In all, the deposit lists about 18,000 reagents; shown is an unselected part. Of all reagents, 450 (2.5%) got an active call. 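Single biological run; no consistent viability z cut-off exists, so the class columns, not z-scores, define the calls.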 A number with no mark means an inactive call. The numbers tell different reagents against one gene apart.

- Test: 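Search for knock-downs that restore vorinostat killing in resistant colon cancer cells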 (primary screen)
- Cells: human HCT116-VR colon cancer cells, selected for vorinostat resistance
- Knock-down reagent: siRNA pool against human genes, 40 nM siRNA pool
- Time to read-out: vorinostat for 24 h, read-out about 72 h after transfection
- Conditions: vorinostat at 2.5 µM final
- Detection: 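Two measures, CellTiter-Fluor viability and luminescent caspase 3/7 activity, each as fold change against same-plate mock wells, mean of duplicates, then screen-wide robust z-score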
- Scale: viability robust z-score: higher = more viable cells than screen typical; caspase robust z-score: higher = more caspase 3/7 activity than screen typical
- Rule for the call: 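Hits are knock-downs in viability class RV1/RV2 or caspase class CA1/CA2, excluding ones that killed cells in the no-drug cell-count arm; hits then retested with single siRNAs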

gene knocked down | pool no. | viability hit class | caspase hit class | viability robust z-score | caspase robust z-score
HEBP1 (GeneID 50865) | 1 | no change | no change | 0.48 | -1.06
DMAP1 (GeneID 55929) | 1 | no change | no change | -1.19 | 0.82
PLEKHG7 (GeneID 440107) | 1 | no change | no change | 0.02 | 0.34
PLEKHG7 (GeneID 440107) | 2 | no change | no change | 0.56 | -0.94
EXTL1 (GeneID 2134) | 1 | no change | no change | 1.31 | -0.48
SNTN (GeneID 132203) | 1 | no change | no change | -0.02 | -0.16
SBDS (GeneID 51119) | 1 | no change | no change | 0.45 | -0.44
OR8K3 (GeneID 219473) | 1 | no change | no change | -1.42 | 0.09
MAP2K5 (GeneID 5607) | 1 | no change | no change | 1.12 | -0.98
TMIGD1 (GeneID 388364) | 1 | no change | no change | -0.06 | 2.67
SIK1 (GeneID 150094) | 1 | no change | no change | 0.5 | 0.33
SMARCAL1 (GeneID 50485) | 1 | no change | no change | -0.66 | -0.88
MMP28 (GeneID 79148) | 1 | no change | no change | 0.18 | -0.08
RRAS2 (GeneID 22800) | 1 | no change | no change | -0.04 | -0.35
SLC25A34 (GeneID 284723) | 1 | no change | no change | 0.66 | 0.01
TXK (GeneID 7294) | 1 | no change | no change | -0.01 | -0.94
BCL2L2 (GeneID 599) | 1 | no change | no change | 1.17 | 0.05
OR2M3 (GeneID 127062) | 1 | no change | no change | 0.08 | 2.75
DENND5B (GeneID 160518) | 1 | no change | no change | -0.06 | -0.77
C17orf78 (GeneID 284099) | 1 | no change | no change | 0.44 | -0.34
ELOVL2 (GeneID 54898) | 1 | no change | no change | 1.49 | -0.04
KRTAP10-4 (GeneID 386672) | 1 | no change | no change | 1.37 | 0.9
MARCKSL1 (GeneID 65108) | 1 | no change | no change | 0.12 | -1.04
CCNK (GeneID 8812) | 1 | no change (active) | CA2 (caspase activation) | -2.45 | 7.16
C12orf42 (GeneID 374470) | 1 | no change | no change | 0.76 | -0.18
PPIAL4A (GeneID 653505) | 1 | no change (active) | CA1 (caspase activation) | 0.48 | 6.72
IFT70A (GeneID 92104) | 1 | no change | no change | -0.3 | 0.34
PRDM1 (GeneID 639) | 1 | no change | no change | 0.66 | -0.48
EXOSC8 (GeneID 11340) | 1 | no change | no change | -1.56 | 2.86
PPP2CA (GeneID 5515) | 1 | no change | no change | -1.44 | 2.69
FOXL1 (GeneID 2300) | 1 | no change (active) | CA2 (caspase activation) | -1.82 | 6.23
MACROH2A1 (GeneID 9555) | 1 | no change | no change | 0.05 | 0.19
ARSB (GeneID 411) | 1 | no change | no change | 0.18 | -0.08
PRDM8 (GeneID 56978) | 1 | no change | no change | -0.49 | 2.53
GOLGA2P5 (GeneID 55592) | 1 | no change | no change | -1.52 | -1.14
PRPF39 (GeneID 55015) | 1 | no change | no change | -1.3 | 0.47
VSNL1 (GeneID 7447) | 1 | no change | no change | -1.19 | 2.09
TMEM65 (GeneID 157378) | 1 | no change | no change | 0.84 | -0.82
TAS2R50 (GeneID 259296) | 1 | no change | no change | 1.04 | -0.4
NAGA (GeneID 4668) | 1 | no change | no change | -0.62 | -0.96
OGFR (GeneID 11054) | 1 | no change | no change | -0.9 | 2.9
MRPL49 (GeneID 740) | 1 | no change | no change | -0.79 | -0.71
ZSCAN5B (GeneID 342933) | 1 | no change | no change | 0.22 | -0.88
KIF4A (GeneID 24137) | 1 | no change | no change | 0.6 | 1.77
EBPL (GeneID 84650) | 1 | no change | no change | 1.22 | -0.86
CXorf65 (GeneID 158830) | 1 | no change | no change | 0.66 | 0.56
CFAP221 (GeneID 200373) | 1 | no change | no change | 0.48 | -0.8
OSTC (GeneID 58505) | 1 | no change | no change | 1 | 0.42
PLXNA1 (GeneID 5361) | 1 | no change | no change | -0.74 | 2.17
VAPA (GeneID 9218) | 1 | no change | no change | 0.68 | -1.15
MRPS10 (GeneID 55173) | 1 | no change | no change | 0.56 | -0.48
SLC7A1 (GeneID 6541) | 1 | RV1 (reduced viability) (active) | no change | -3.06 | 1.27
CCDC32 (GeneID 90416) | 1 | no change | no change | -1.18 | 0.77
SPECC1 (GeneID 92521) | 1 | no change | no change | 0.92 | 0.07
ITGB1BP2 (GeneID 26548) | 1 | no change (active) | CA1 (caspase activation) | 1.67 | 5.13
XXYLT1 (GeneID 152002) | 1 | no change | no change | 0.88 | -0.61
CAMK2D (GeneID 817) | 1 | no change | no change | 1.6 | -0.41

7 entries from above, reduced to “caspase hit class”.
OGFR (GeneID 11054)	no change
MRPL49 (GeneID 740)	no change
ZSCAN5B (GeneID 342933)	no change
KIF4A (GeneID 24137)	no change
EBPL (GeneID 84650)	no change
CXorf65 (GeneID 158830)	no change
CFAP221 (GeneID 200373)	no change
